# Source: publication PMC12822425
# Chains of the proteins cited; added tags and fusions are not shown.
# UniProt Q9UPY5: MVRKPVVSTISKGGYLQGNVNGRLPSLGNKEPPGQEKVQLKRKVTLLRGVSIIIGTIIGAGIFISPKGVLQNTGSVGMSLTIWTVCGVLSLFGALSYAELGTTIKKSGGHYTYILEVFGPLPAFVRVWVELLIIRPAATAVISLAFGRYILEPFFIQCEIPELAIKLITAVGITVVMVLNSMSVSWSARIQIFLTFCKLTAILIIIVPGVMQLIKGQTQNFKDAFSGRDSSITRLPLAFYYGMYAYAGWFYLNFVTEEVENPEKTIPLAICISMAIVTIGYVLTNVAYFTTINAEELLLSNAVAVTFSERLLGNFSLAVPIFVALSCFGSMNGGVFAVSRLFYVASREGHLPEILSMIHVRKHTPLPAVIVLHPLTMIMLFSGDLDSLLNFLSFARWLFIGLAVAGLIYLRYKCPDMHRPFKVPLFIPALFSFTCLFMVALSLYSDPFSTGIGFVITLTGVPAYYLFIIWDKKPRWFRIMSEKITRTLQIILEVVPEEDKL
# No constants are given. Whether binding was seen depends on the method and setting. In cells and extracts the contact can be indirect. Some results given as binding are weak or reduced against the parent protein; the word gives no strength.
# B1: endogenous TRIM3 (enzyme, UniProt O75382 1-744)
# chain: MAKREDSPGPEVQPMDKQFLVCSICLDRYQCPKVLPCLHTFCERCLQNYIPAQSLTLSCPVCRQTSILPEQGVSALQNNFFISSLMEAMQQAPDGAHDPEDPHPLSVVAGRPLSCPNHEGKTMEFYCEACETAMCGECRAGEHREHGTVLLRDVVEQHKAALQRQLEAVRGRLPQLSAAIALVGGISQQLQERKAEALAQISAAFEDLEQALQQRKQALVSDLETICGAKQKVLQSQLDTLRQGQEHIGSSCSFAEQALRLGSAPEVLLVRKHMRERLAALAAQAFPERPHENAQLELVLEVDGLRRSVLNLGALLTTSATAHETVATGEGLRQALVGQPASLTVTTKDKDGRLVRTGSAELRAEITGPDGTRLPVPVVDHKNGTYELVYTARTEGELLLSVLLYGQPVRGSPFRVRALRPGDLPPSPDDVKRRVKSPGGPGSHVRQKAVRRPSSMYSTGGKRKDNPIEDELVFRVGSRGREKGEFTNLQGVSAASSGRIVVADSNNQCIQVFSNEGQFKFRFGVRGRSPGQLQRPTGVAVDTNGDIIVADYDNRWVSIFSPEGKFKTKIGAGRLMGPKGVAVDRNGHIIVVDNKSCCVFTFQPNGKLVGRFGGRGATDRHFAGPHFVAVNNKNEIVVTDFHNHSVKVYSADGEFLFKFGSHGEGNGQFNAPTGVAVDSNGNIIVADWGNSRIQVFDSSGSFLSYINTSAEPLYGPQGLALTSDGHVVVADAGNHCFKAYRYLQ
# Experiments:
# [1] = biological target: endogenous SLC7A11 (human (endogenous in A549 and H1299)) (UniProt Q9UPY5); test: co-IP; endogenous proteins in A549 and H1299 lysates; IP with anti-xCT or anti-CypA antibody at 4 °C overnight, magnetic beads; Western blot
# [2] = biological target: endogenous SLC7A11 (human (endogenous in A549 and H1299)) (UniProt Q9UPY5); test: co-IP; A549 and H1299 cells after CypA overexpression; IP with anti-xCT antibody; blot for CypA and TRIM3
binder,measurement,setting,value
B1,binding,[1],binds
same,binding,[2],binds
